Consider one molecule from article doi:10.1101/2024.09.05.611512.

Protein sequences, listed by entry. Tags and fused reporters are not part of them. Lines headed by an entry give the natural chain unless they say otherwise; changes in a name come on top.
UniProt P07384: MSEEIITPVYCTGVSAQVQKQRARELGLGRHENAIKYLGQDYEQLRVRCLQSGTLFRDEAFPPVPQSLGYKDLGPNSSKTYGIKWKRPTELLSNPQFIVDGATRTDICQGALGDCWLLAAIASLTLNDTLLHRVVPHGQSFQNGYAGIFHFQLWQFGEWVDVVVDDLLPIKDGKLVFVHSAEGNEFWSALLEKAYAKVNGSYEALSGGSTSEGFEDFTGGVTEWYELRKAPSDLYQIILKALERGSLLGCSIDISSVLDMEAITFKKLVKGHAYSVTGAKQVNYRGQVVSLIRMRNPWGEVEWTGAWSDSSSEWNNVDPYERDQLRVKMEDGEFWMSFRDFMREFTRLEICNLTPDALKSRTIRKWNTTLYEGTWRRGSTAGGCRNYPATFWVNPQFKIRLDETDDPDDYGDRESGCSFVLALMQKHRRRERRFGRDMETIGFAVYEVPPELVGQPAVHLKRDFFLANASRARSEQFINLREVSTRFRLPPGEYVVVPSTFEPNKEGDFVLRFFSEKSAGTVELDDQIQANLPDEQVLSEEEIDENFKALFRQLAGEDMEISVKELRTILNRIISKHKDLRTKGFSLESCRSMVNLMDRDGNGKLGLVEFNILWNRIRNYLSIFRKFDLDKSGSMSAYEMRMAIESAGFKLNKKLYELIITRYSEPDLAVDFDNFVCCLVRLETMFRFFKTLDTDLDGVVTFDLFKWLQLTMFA

This assay addresses CAPN1[C115S]-3xFlag-6xHis (human) (UniProt P07384). The assay can be described thus: co-purification on HisPure beads after co-expression; His-tagged calpain large subunit and CAPNS1 coexpressed in E. coli from PetDuet-1; lysate on HisPure beads, washed with 1.5x TBS + 20 mM imidazole, eluted with 300 mM imidazole.

No constants are given. Whether binding was seen depends on the method and setting. Some entries that bind do so weakly or less than the wild type.

B1: calpain small subunit, CAPNS1(86–268) (domain or fragment, UniProt P04632 86-268)
chain: HYSNIEANESEEVRQFRRLFAQLAGDDMEVSATELMNILNKVVTRHPDLKTDGFGIDTCRSMVAVMDSDTTGKLGFEEFKYLWNNIKRWQAIYKQFDTDRSGTICSSELPGAFEAAGFHLNEHLYNMIIRRYSDESGNMDFDNFISCLVRLDAMFRAFKSLDKDGTGQIQVNIQEWLQLTMYS
As to B1, the binding entry is “binds”.
